According to article PMC11868815:
Results are given in words; binding and its absence hold for the method and conditions named. In cells and extracts the contact can be indirect.

Molecular target: ATPase Na+/K+ Transporting Subunit Beta 3 (ATP1B3) (human (endogenous in U87MG and U251MG)) (UniProt P54709)
Assay: co-IP; lysates of U87MG and U251MG cells; supernatant treated 1.5 h at 4°C with 2 μg of ATP1B3 and PPP1CA antibodies, then protein A/G agarose beads 1.5 h; detection by Western blotting

## Protein Phosphatase 1 Catalytic Subunit Alpha (PPP1CA) (from UniProt P62136 1-330)
  binding: no binding
